Library screening results

From ChEMBL document CHEMBL3988442, “University of Dundee, Small-Polar-MMV Screening Library” (2021).

Each number is a percent effect as filed. The record does not define 0% and 100%; most values in the screen are far below 50% and negative numbers occur (in some assays of this library far below -100). Compounds were drawn at random from those tested, without regard to their results. Two or more numbers in one place are separate tests of the same structure; such repeats can differ widely.

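Viability assay of Plasmodium falciparum sporozoites; the read-out is not stated. The concentration is filed as 10 mM, unlikely as a test dose, so the dose is not known. The record gives no direction; compounds that gave an IC50 in retests scored well above the rest, so higher reads as lower viability. Strong results were mostly tested again. Of about 34,000 compounds tested this way, about 280 (0.84%) reached 50% or more in at least one test.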

With CCN1CC(C(=O)NC(C)(C)CNC(=O)OC(C)(C)C)CC1=O (stereo not shown) the screen gave -10.61%. Result for CC(C)(C)Nc1c(C2CCN(C(=O)C3CC3)CC2)nc2ccccn12 was 4.813%. Result for O=C(O)C(F)(F)F.O=C1COC2(CCN(C(=O)c3ccco3)CC2)CN1Cc1cccnc1 was 1.602%. Result for O=C(O)C(F)(F)F.[H][C@]12CCC(=O)N(c3ccccc3)[C@@]1([H])CCN2c1ncc(CC)cn1 was 7.356%. Cc1[nH]c2ccc(CNc3cc(C#N)ccn3)cc2c1C gave -24.46%. CC(C)c1nc(CN2CCN(Cc3ccccn3)CC2)cs1 gave 0%.

With Cc1cnn(CC2CCCN2C(=O)c2ccc(OC(C)C)nc2)c1 (stereo not shown) the screen gave 0.9662%. NC(=O)CCn1nnc(-c2cc3ccccc3o2)n1 gave -6.915%. CC(C)c1noc(CCCC(=O)N2CCC(Cc3cccnc3)CC2)n1 read 1.562%. With Cc1ccc(NC2CCN(C(=O)c3c(C)nn(C)c3Cl)CC2)nn1 the screen gave -0.3918%. Result for CC(C)(C)CC(=O)N1CCC(n2cc(C3(O)CCCC3)nn2)CC1 was -31.46% and -35.35%. With COCC1CC2(CCN(Cc3nccs3)CC2)CN1Cc1ccccn1.O=C(O)C(F)(F)F.O=C(O)C(F)(F)F.O=C(O)C(F)(F)F (stereo not shown) the screen gave 18.74%.

Cc1cccc(OCCC(=O)NCC(C)(C)C(N)=O)c1 read -5.276%. Cc1ccc(CN2Cc3nccn3CC(Cn3cccn3)C2)s1.O=C(O)C(F)(F)F (stereo not shown) gave 14.89%. With CC[C@H](Cn1ncc2ccccc2c1=O)NC(=O)c1cnc(C)cn1 the screen gave 1.421%. For CC(=O)N1CCN(C(=O)CN2CCc3c(ncn3C3CC3)C2)CC1 the result was -3.819%. With Cc1cc(-c2cnc(N3CCC(C(N)=O)CC3)nc2C(C)C)on1 the screen gave -6.609%. CCNC(=O)[C@@H]1C[C@@H](N)CN1C(=O)Cc1cc(C)ccc1C gave -33.78% and -47.91%.

For CCOc1ccc(-c2ccnc(COc3ccccc3)n2)cc1C(=O)O the result was 6.064%. With COCc1nc(CN2CCOC(CNc3cccnn3)C2)cs1 (stereo not shown) the screen gave 12.93%. CN(C)CCCn1cnc2cc(NC(=O)c3n[nH]c4c3CCC4)ccc21 read -35.39% and -25.92%. O=C(O)C(F)(F)F.[H][C@@]12CCN(Cc3ccccc3F)C[C@]1(COC)CCO2 read -5.893%. COc1ccc(OC)c(NC(=O)c2nc3ccccc3n(C)c2=O)c1 gave -6.592%. Result for OCC(CO)Nc1cccc(C(F)(F)F)n1 was -2.519%.

Result for O=C(O)C(F)(F)F.[H][C@@]12COC[C@H](NS(C)(=O)=O)[C@]1([H])CN(Cc1ccc(CC)o1)C2 was 9.612%. Cn1ccc(CN2CCC(NC(=O)Cc3ccccc3)CC2)cc1=O gave 2.415%. CN(C)C1CCN(C(=O)NCc2ccc(Cn3cncn3)cc2)CC1 read -4.824%. With N#Cc1ccc(OCCCN2CCc3cncnc3C2)cc1 the screen gave 1.234%. With Cc1cncc(C(=O)N2CCC3(CCCN(c4nncs4)C3)C2)c1.O=C(O)C(F)(F)F (stereo not shown) the screen gave 20.02%. With CNC(=O)C1CCC2(CCNCC2)C1.O=C(O)C(F)(F)F (stereo not shown) the screen gave -4.79%.

COc1ccc(S(=O)(=O)NCc2cccnc2N(C)C)cc1F gave 12.91%. With Cc1nn(C)c(N(C)C)c1CNCc1ccnc(N2CCCC2)c1 the screen gave 0.4872% and 9.69% and -2.726%.

The last 4 entries again:

| structure | percent effect |
|---|---|
| `Cc1cncc(C(=O)N2CCC3(CCCN(c4nncs4)C3)C2)c1.O=C(O)C(F)(F)F` (stereo not shown) | 20.02 |
| `CNC(=O)C1CCC2(CCNCC2)C1.O=C(O)C(F)(F)F` (stereo not shown) | -4.79 |
| `COc1ccc(S(=O)(=O)NCc2cccnc2N(C)C)cc1F` | 12.91 |
| `Cc1nn(C)c(N(C)C)c1CNCc1ccnc(N2CCCC2)c1` | 0.4872 and 9.69 and -2.726 |